The target in series [1] is T1, RtcR (full-length) (UniProt Q8ZLH7).
T1 sequence (looked up): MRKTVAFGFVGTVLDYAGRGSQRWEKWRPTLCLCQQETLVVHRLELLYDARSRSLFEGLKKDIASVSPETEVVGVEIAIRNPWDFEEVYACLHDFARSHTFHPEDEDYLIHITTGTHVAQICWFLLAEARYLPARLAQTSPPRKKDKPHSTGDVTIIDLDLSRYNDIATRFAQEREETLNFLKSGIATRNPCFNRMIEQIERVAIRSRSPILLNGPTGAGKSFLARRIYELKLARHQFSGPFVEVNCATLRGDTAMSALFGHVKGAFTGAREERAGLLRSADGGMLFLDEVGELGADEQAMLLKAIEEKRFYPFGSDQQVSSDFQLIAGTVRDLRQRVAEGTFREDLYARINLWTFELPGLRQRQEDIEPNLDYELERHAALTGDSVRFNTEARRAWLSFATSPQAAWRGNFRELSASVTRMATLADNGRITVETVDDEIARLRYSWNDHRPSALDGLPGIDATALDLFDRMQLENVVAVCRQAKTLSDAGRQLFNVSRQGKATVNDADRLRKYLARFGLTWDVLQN
As to the kind of experiment: EMSA. Particulars: 20 mM Tris-HCl pH 7.5, 50 mM NaCl, 1 mM MgCl2, 0.05% Tween 20, 1 mM ATP for RtcR, 30 min at 4 C then 30 min at room temperature, RNA 1 nM, recombinant protein, residues 1-527. (Mobility shift assays separate free from complexed probe on a gel.)

In another series the target is T2, RtcR CARF domain (UniProt Q8ZLH7).
T2 sequence (looked up): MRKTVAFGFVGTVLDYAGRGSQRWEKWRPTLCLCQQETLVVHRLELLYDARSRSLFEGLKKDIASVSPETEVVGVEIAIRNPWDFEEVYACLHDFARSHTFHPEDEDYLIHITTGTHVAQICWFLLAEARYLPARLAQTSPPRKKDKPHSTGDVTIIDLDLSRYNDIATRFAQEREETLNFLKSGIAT
As to the kind of experiment: EMSA. Particulars: 20 mM Tris-HCl pH 7.5, 50 mM NaCl, 1 mM MgCl2, 0.05% Tween 20, 1 mM ATP for RtcR, 30 min at 4 C then 30 min at room temperature, RNA 1 nM, recombinant protein, residues 1-188, label: 5'-32P; for binding result: 1 mM ATP, 0.5 uM protein, 2',3'-cyclic phosphate 3' end.

Series [2] has as its target T1, RtcR (full-length). As to the kind of experiment: size exclusion chromatography. Particulars: ATP, 48 uM each, no 400 kDa complex, 160 kDa reduced; 3'-phosphate; 20 mM Tris-HCl pH 7.5, 50 mM NaCl, 1 mM MgCl2, 0.05% Tween 20; 1 mM ATP for RtcR; 30 min at 4 C then 30 min at room temperature; RNA 1 nM; recombinant protein; residues 1-527; label: 5'-32P (EMSA).
The mark [3] stands for this setting: 1 mM ATP, 0.5 uM protein, 2',3'-cyclic phosphate 3' end, label: 5'-32P.

Here are results for seven sequences from PMC7790460, “An RNA Repair Operon Regulated by Damaged tRNAs”.

The comparison behind a weaker result is the experiment's own reference, which may not be listed here. Protein sequences can lack the tags named with them. For some of these results: For at least one entry, the source does not settle the construct or the ends of the probe. For some of these results: At least one verdict rests on a figure or table, not on a statement of the authors.

For the sequence “GCGGGAGUGGCGAAAUUGGUAGACGCACCAGAUUUA [tRNALeu(UAG)-UUA 5' half, cyclic phosphate]”, the binding result in the series with RtcR (full-length) [1] (setting [3]) and with RtcR CARF domain was “binds more weakly” each time. In the case of “GGGCGUAGUUCAAUUGGUAGAGCACCGGUCUCCA [tRNATrp(CCA) 5' half, cyclic phosphate]”, the binding result with RtcR (full-length) [1] (setting [3]) and with RtcR CARF domain was “binds more weakly” in each case. On to “GCGGGAGUGGCGAAAUUGGUAGACGCACCAGAUU [tRNALeu(UAG)-AUU 5' half, cyclic phosphate]”, for which the binding result with RtcR (full-length) [1] (setting [3]) and with RtcR CARF domain was “binds more weakly” throughout. With “GCGGGAGUGGCGAAAUUGGUAGACGCACCAGAUUUAG [tRNALeu(UAG) 5' half, after G of anticodon, 3'-phosphate]”, the binding result is “binds more weakly” in the series with RtcR (full-length) [2] and “binds more weakly” with RtcR (full-length) [1] (1 mM ATP, barely detectable, 3'-phosphate, label: 5'-32P (EMSA)). As to “GCGGGAGUGGCGAAAUUGGUAGACGCACCAGAUUUAG [tRNALeu(UAG) 5' half, after G of anticodon, cyclic phosphate]”, in the series with RtcR (full-length) [1] (no ATP, 2',3'-cyclic phosphate 3' end, label: 5'-32P (EMSA)), the binding result is “binds more weakly”. Take “GCGGGAGUGGCGAAAUUGGUAGACGCACCAGAUUUAG [tRNALeu(UAG) 5' half, after G of anticodon, 3'-OH]”: the binding result in the series with RtcR (full-length) [1] (1 mM ATP, 3'-OH, label: 5'-32P) is listed as “binds more weakly”. For the same sequence, in the series with RtcR CARF domain (3'-OH), the half-maximal binding is above 5 µM. As for “CGGAUAGCUCAGUCGGUAGAGCAGGGGAUUGAA [tRNAPhe(GAA) 5' half, cyclic phosphate]”, the binding result in the series with RtcR (full-length) [1] (setting [3]) and with RtcR CARF domain was “binds more weakly” each time.
